From publication PMC10837360
These are yes or no findings as the source states them, for the method shown. Binding seen in cells or lysates may run through a third protein. Some entries that bind do so weakly or less than the wild type. Sequences can lack the tags named with a protein.

Biological target: T1, Flag-SLC27A5 (solute carrier family 27 member 5, 3xFlag-tagged) (human) (UniProt Q9Y2P5)
T1 sequence: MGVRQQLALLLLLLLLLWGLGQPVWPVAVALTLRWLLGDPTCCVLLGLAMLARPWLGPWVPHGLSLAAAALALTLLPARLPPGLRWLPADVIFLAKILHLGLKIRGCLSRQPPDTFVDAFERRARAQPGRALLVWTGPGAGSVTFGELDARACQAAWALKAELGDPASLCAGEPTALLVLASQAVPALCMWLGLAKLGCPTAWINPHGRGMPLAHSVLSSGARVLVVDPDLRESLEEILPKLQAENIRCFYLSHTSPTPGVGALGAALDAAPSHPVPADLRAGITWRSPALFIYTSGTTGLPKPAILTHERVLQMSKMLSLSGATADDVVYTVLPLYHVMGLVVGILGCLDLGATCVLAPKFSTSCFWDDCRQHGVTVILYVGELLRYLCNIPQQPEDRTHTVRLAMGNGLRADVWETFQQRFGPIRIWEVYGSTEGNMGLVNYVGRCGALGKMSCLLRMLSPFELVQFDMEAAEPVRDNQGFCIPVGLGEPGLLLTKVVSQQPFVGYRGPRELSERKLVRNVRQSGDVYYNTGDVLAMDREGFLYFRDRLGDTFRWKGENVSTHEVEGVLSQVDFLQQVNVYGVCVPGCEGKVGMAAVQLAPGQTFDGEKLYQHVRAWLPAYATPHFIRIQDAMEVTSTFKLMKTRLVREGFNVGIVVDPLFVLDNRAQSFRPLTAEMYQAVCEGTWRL
Assay: co-IP; PLC/PRF/5 cells transfected with Flag-SLC27A5 and Myc-IGF2BP3 or their truncated forms; IP with anti-Myc or anti-Flag, IgG as control; RIPA lysate, magnetic beads, overnight at 4 °C

binding: binds
B1: IGF2BP3 KH3-4 (aa 345-579) (domain or fragment, UniProt O00425 345-579)
chain: KKIRESYENDIASMNLQAHLIPGLNLNALGLFPPTSGMPPPTSGPPSAMTPPYPQFEQSETETVHLFIPALSVGAIIGKQGQHIKQLSRFAGASIKIAPAEAPDAKVRMVIITGPPEAQFKAQGRIYGKIKEENFVSPKEEVKLEAHIRVPSFAAGRVIGKGGKTVNELQNLSSAEVVVPRDQTPDENDQVVVKITGHFYACQVAQRKIQEILTQVKQHQQQKALQSGPPQSRRK
